Construct, isoform or probe ends are uncertain for at least one entry. Weaker means in comparison with the reference protein, sequence or condition of that experiment.

The subject of the data set is CCAN6E-deltaCT (CENP-L4E/N2E) K296E,R306E,K319E,K321E,CENP-N:K270E,CENP-L:K155E (Homo sapiens). Kind of data set: EMSA. The settings on record: 300 mM NaCl; EMSA: 20 mM HEPES-Na pH 7.5, 300 mM NaCl, 0.5 mM TCEP, 10 min on ice, 1% agarose in 0.5x TAE; recombinant protein.

For the sequence “ATCGAGAATCCCGGTGCCGAGGCCGCTCAATTGGTCGTAGACAGCTCTAGCACCGCTTAAACGCACGTACGCGCTGTCCCCCGCGTTTTAACCGCCAAGGGGATTACTCCCTAGTCTCCAGGCACGTGTCACATATATACATCCGAT (double strand) [147 bp DNA (Widom 601)]”, the binding result was “binds more weakly”.

Source of the values: paper PMC9463443.
